Measured values: the supplement of paper PMC10849652
The other results are listed elsewhere or left out.

By UniProt entry, the sequences of proteins in these tests, tags left out. Where a name states a change or a piece, a line headed by the entry shows the natural chain unless it says otherwise.
UniProt Q8NG68: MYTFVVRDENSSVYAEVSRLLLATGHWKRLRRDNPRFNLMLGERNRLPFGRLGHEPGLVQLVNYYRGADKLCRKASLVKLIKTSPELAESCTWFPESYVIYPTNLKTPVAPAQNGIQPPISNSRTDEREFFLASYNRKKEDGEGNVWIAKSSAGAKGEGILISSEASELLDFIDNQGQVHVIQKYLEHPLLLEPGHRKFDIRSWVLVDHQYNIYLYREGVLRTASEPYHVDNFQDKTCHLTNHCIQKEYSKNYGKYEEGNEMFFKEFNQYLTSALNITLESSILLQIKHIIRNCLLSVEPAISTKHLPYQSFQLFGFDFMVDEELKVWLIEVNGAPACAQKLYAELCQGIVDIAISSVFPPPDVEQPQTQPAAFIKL
UniProt Q5T7W7: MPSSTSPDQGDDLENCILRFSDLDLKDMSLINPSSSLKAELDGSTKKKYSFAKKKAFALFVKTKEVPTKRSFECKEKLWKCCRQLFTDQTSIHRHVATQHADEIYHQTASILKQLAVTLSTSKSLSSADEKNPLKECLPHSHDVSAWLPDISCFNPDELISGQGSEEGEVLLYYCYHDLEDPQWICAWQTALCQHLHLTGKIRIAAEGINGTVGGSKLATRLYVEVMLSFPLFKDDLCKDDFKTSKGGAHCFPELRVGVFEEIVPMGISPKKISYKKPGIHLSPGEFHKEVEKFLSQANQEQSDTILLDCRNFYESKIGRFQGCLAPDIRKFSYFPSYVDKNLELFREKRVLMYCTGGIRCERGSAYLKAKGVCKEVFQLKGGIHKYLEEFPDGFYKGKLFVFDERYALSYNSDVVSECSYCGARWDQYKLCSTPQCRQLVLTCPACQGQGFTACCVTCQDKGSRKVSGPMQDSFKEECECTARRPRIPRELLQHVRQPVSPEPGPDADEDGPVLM
UniProt Q13049: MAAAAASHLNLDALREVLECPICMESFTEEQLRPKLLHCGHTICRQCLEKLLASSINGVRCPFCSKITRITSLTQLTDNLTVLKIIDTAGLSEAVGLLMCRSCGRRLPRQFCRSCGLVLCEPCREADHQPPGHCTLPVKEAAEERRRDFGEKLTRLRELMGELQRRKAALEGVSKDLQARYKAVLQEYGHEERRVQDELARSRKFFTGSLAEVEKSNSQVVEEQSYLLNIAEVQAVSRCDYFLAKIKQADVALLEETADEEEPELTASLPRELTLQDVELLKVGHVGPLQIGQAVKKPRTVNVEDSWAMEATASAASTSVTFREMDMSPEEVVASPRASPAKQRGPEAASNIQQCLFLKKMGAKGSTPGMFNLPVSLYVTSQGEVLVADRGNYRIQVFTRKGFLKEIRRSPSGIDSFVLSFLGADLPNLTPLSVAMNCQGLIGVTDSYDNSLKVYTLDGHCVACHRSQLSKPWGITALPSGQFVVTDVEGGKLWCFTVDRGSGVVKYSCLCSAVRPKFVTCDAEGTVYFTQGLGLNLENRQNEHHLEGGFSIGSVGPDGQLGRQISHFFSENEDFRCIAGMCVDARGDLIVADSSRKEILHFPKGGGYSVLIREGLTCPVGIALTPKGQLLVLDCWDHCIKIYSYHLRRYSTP
UniProt Q9H2G4: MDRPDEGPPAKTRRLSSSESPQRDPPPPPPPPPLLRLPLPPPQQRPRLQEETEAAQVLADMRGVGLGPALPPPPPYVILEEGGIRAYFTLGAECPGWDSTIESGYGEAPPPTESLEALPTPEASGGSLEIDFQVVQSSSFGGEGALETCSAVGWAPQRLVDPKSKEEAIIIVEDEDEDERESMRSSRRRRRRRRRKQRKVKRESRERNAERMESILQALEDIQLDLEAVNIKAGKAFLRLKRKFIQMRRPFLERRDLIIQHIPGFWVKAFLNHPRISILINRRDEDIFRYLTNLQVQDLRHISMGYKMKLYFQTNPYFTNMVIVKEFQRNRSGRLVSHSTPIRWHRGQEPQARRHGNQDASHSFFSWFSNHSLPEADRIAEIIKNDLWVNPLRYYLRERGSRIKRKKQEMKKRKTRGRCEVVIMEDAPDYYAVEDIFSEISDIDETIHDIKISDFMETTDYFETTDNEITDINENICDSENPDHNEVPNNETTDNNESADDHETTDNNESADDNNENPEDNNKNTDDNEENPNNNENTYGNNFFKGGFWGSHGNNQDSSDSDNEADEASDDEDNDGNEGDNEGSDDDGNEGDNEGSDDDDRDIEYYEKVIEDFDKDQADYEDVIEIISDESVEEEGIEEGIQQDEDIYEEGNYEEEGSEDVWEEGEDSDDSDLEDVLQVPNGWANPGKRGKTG
UniProt Q9Y3Q8: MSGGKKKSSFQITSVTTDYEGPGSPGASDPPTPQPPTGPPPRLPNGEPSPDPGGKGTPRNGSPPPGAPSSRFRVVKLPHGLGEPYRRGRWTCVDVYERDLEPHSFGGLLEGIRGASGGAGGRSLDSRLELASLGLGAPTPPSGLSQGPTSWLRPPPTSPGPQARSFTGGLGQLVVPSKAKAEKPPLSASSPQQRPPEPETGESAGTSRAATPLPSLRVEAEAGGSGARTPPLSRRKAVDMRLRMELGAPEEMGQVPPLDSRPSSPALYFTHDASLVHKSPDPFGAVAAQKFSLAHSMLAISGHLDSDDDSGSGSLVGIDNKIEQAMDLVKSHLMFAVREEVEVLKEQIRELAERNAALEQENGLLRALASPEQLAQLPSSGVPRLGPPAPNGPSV

Legend:
Experiment in all cases: log2 fold change, soluble protein after heating vs DMSO (PISA); higher = thermal stabilisation; K562 lysate, 10 uM; active = over 0.2 and 3.5 SD of the protein, either way, in both replicates (recomputed)
[1] = compound: CN1CC[C@H](c2c(O)cc(O)c3c(=O)cc(-c4ccccc4Cl)oc23)[C@H](O)C1 [alvocidib]
How it was run: (§1)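 To prepare the extract, K562 pellets were dounce-homogenised in PBS pH 7.4 with 1 mM MgCl2, giving crude material at 1 mg/mL protein. This was treated with 10 μM compound for 30 min, then heated in aliquots for 3 min over 48°C-58°C before pooling and addition of NP-40 to 0.5% at 4°C. Centrifugation at 21,000xg for 90 min left soluble protein in the supernatant, which TMTpro 16plex LC-MS/MS quantified with equalised channel sums. Results are log-two fold changes in thermal stability compared with solvent controls, from duplicates.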

[2] = compound: CN1CCc2c(c3ccccc3n2Cc2ccc(C(=O)NO)cc2)C1 [Tubastatin A]
How it was run: as §1

[3] = compound: CNC(=O)C1=CC=CC=C1NC2=NC(=NC=C2Cl)NC3=C(C=C(C=C3)N4CCOCC4)OC
How it was run: as §1

[4] = compound: CNC(=O)c1ccc(Nc2ncc(C(F)(F)F)c(NCc3nccnc3N(C)S(C)(=O)=O)n2)cc1 [defactinib]
How it was run: as §1

[5] = compound: CNc1nc(-c2ccc3c(N)n[nH]c3c2)cc(N2C[C@@H](C(=O)NC3CCCCC3)CC[C@H]2C)n1
How it was run: as §1

[6] = compound: COC(=O)N[C@@H](C)CNc1nccc(-c2cn(C(C)C)nc2-c2cc(Cl)cc(NS(C)(=O)=O)c2F)n1 [encorafenib]
How it was run: as §1

[7] = compound: COC(=O)[C@H](CCSC)NC(=O)C1=C(C=C(C=C1)NC[C@H](CS)N)C2=CC=CC=C2
How it was run: as §1

[8] = compound: COc1cc(Nc2ncc3c(n2)-c2ccc(Cl)cc2C(c2c(F)cccc2OC)=NC3)ccc1C(=O)O [alisertib]
How it was run: as §1

[9] = compound: COc1cc2nc(-c3cc(F)ccc3O)nc(N[C@@H]3CNC[C@H]3C(C)(C)O)c2cc1OC
How it was run: as §1

[10] = compound: COc1cc2ncnc(Nc3ccc(F)c(Cl)c3)c2cc1OCCCN1CCOCC1 [gefitinib]
How it was run: as §1

[11] = compound: CS(=O)(=O)CCNCc1ccc(-c2ccc3ncnc(Nc4ccc(OCc5cccc(F)c5)c(Cl)c4)c3c2)o1 [lapatinib]
How it was run: as §1

[12] = compound: CS(=O)(=O)N1CCN(Cc2cc3nc(-c4cccc5[nH]ncc45)nc(N4CCOCC4)c3s2)CC1 [pictilisib]
How it was run: as §1

[13] = compound: C[C@@H](Oc1cc(-c2cnn(C3CCNCC3)c2)cnc1N)c1c(Cl)ccc(F)c1Cl [crizotinib]
How it was run: as §1

[14] = compound: C[C@H](C1=CC=C(C=C1)C(=O)NC2=C3C=CNC3=NC=C2)N
How it was run: as §1

[15] = compound: C[C@H](Nc1ncnc2nc[nH]c12)c1cc2cccc(Cl)c2c(=O)n1-c1ccccc1 [duvelisib]
How it was run: as §1

[16] = compound: Cc1cc(Nc2cc(CN3CCOCC3)c3nc(C)c(Cc4ccc(Cl)cc4F)n3n2)n[nH]1 [gandotinib]
How it was run: as §1

[17] = compound: Cc1cc(Nc2cc(N3CCN(C)CC3)nc(Sc3ccc(NC(=O)C4CC4)cc3)n2)n[nH]1 [tozasertib]
How it was run: as §1

[18] = compound: Cc1ccc(-n2nc(C(C)(C)C)cc2NC(=O)Nc2ccc(OCCN3CCOCC3)c3ccccc23)cc1 [doramapimod]
How it was run: as §1

[19] = compound: Cc1ccc(NC(=O)c2ccc(CN3CC[C@H](N(C)C)C3)c(C(F)(F)F)c2)cc1Nc1nccc(-c2cncnc2)n1 [bafetinib]
How it was run: as §1

[20] = compound: Cc1cccc(CC(=O)N2CCc3c2ccc(-c2cn(C)c4ncnc(N)c24)c3F)n1
How it was run: as §1

Row | Target | log2 fold change [1] | log2 fold change [2] | log2 fold change [3] | log2 fold change [4] | log2 fold change [5] | log2 fold change [6] | log2 fold change [7] | log2 fold change [8] | log2 fold change [9] | log2 fold change [10] | log2 fold change [11] | log2 fold change [12] | log2 fold change [13] | log2 fold change [14] | log2 fold change [15] | log2 fold change [16] | log2 fold change [17] | log2 fold change [18] | log2 fold change [19] | log2 fold change [20]
1 | TTL (UniProt Q8NG68) | inactive: 0.112 | inactive: -0.143 | inactive: 0.015 | inactive: -0.065 | inactive: 0.001 | inactive: 0.079 | inactive: 0.144 | inactive: -0.027 | inactive: 0.019 | inactive: 0.112 | inactive: -0.015 | inactive: -0.057 | inactive: -0.067 | inactive: 0.096 | active: 0.356 | inactive: -0.033 | inactive: -0.112 | inactive: -0.011 | inactive: -0.091 | inactive: -0.048
2 | TSTD2 (UniProt Q5T7W7) | inactive: 0.064 | inactive: -0.106 | inactive: -0.053 | inactive: 0.038 | inactive: 0.086 |  |  | inactive: 0.036 | inactive: -0.01 | inactive: -0.043 | inactive: -0.082 | inactive: -0.062 |  | inactive: 0.041 | inactive: -0.012 | inactive: -0.326 |  |  | inactive: -0.215 | inactive: -0.053
3 | TRIM32 (UniProt Q13049) | inactive: -0.018 | inactive: 0.01 | inactive: -0.034 | inactive: 0.03 | inactive: -0.02 | inactive: 0.15 | inactive: -0.125 | inactive: 0.017 | inactive: -0.012 | inactive: 0.006 | inactive: -0.057 | inactive: -0.04 | inactive: 0.005 | inactive: 0 | inactive: 0.042 | inactive: -0.046 | inactive: 0.021 | inactive: -0.084 | inactive: -0.035 | inactive: 0.104
4 | TSPYL2 (UniProt Q9H2G4) | inactive: 0.04 |  | inactive: 0.019 |  | inactive: 0.084 | inactive: -0.234 | inactive: -0.029 | inactive: -0.113 |  | inactive: -0.032 |  |  | inactive: -0.144 | inactive: 0.039 | inactive: -0.041 | inactive: -0.282 | inactive: -0.008 | inactive: 0.088 |  | inactive: 0.228
5 | TSC22D4 (UniProt Q9Y3Q8) | inactive: -0.015 | inactive: 0.012 | inactive: -0.002 | inactive: 0.001 | inactive: 0.015 | inactive: -0.004 | inactive: -0.006 | inactive: -0.015 | inactive: 0.011 | inactive: -0.015 | inactive: -0.008 | inactive: -0.03 | inactive: 0.006 | inactive: 0.012 | inactive: 0.026 | inactive: 0.013 | inactive: -0.015 | inactive: -0.011 | inactive: -0.038 | inactive: 0
